Assay results from PMC5725467, “Elongated Hypocotyl 5-Homolog (HYH) Negatively Regulates Expression of the Ambient Temperature-Responsive MicroRNA Gene MIR169”.
Construct, isoform or probe ends are uncertain for at least one entry. Negatives hold for the conditions tested. Tags and fusion partners may be left off the protein sequences shown.

Target: T1, HYH.2-His (HYH splice isoform 2) (UniProt Q8W191)
T1 sequence (looked up, limits assumed): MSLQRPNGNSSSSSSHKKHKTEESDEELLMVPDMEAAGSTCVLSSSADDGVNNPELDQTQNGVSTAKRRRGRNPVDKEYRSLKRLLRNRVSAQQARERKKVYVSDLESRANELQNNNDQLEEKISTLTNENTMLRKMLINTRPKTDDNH
Assay: EMSA
Conditions: 100 ng protein; EMSA: LightShift Chemiluminescent EMSA Kit (manufacturer's instructions), 100 ng HYH.2-His, room temperature 30 min, 8% native polyacrylamide gel; recombinant protein; protein details: His (pET28a+); label: 5'-biotin; letters put together from the description

TGTACGGCACATACCCCTTGACCTAC (double strand) [miR169a mutant G-box-like (mG)]
binding result: no binding
